The other results are listed elsewhere or left out.
Target: T1, OsSMF1 (Oryza sativa, UniProt Q6ZLB0 1-436)
T1 sequence: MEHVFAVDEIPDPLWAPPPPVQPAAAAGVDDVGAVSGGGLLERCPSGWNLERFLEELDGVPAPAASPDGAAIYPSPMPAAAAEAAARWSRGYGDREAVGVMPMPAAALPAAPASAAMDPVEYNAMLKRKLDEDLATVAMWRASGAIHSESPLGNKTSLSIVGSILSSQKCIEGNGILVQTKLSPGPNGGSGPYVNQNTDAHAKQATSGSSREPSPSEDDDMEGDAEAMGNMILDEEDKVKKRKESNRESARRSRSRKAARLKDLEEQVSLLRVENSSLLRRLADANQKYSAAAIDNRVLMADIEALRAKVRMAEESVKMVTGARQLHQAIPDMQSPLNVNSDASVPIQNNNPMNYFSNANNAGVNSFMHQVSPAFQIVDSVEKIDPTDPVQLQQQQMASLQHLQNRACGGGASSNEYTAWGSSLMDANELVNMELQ
Test: protein-binding microarray (RPBM); PBS, 2% BSA, 51.3 ng/ul salmon testes DNA, 50 uM zinc acetate, 200 nM TF, 25 C, 1 h; high values mean tight binding
Details: protein: recombinant; tags: N-terminal polyhistidine and DsRed monomer fusion (pET32a); chain copies: 2; label: CyDye5-dUTP incorporated in the synthesized complementary strand; 3' TTTTT single-stranded linker to array surface; dsDNA, one strand shown
Method in brief: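 Transcription factors, each fused N-terminally to a polyhistidine tag and DsRed, were expressed in E. coli BL21-CodonPlus and purified on Ni–NTA. A custom Agilent array was made double-stranded by primer extension with Cy5-dUTP and blocked with 2% BSA. It was incubated with 200 nM protein in PBS, 2% BSA, salmon testes DNA and 50 µM zinc acetate at 25 °C for 1 h, then washed. The binding signal is per-feature fluorescence intensity (arbitrary units) read on an Axon 4000B scanner.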

Sequence	binding signal
AAGCTGCGTCTTGCATGACAGCTTCAAGTTACACATGCTGCGGAGTCACCTAGTGCAG	3490 fluorescence intensity (a.u.)
GCCACGCTGTGGTAGGCCGCGCCGACGTGGGCGAATCCGCCGGAGTCACCTAGTGCAG	6340 fluorescence intensity (a.u.)
ACAAGCCAGGACCAGTAGGCCATGTATCTCTCCTAAAATTCGGAGTCACCTAGTGCAG	36000 fluorescence intensity (a.u.)
CCGCCGTCCGGTGACGTGGCCTTCCTCCTCTTCCCACCGCCGGAGTCACCTAGTGCAG	23400 fluorescence intensity (a.u.)
TTCCACAATCTTTAATCTACTGTCGTCAGCCGACATGTCACGGAGTCACCTAGTGCAG	5800 fluorescence intensity (a.u.)
GCAAGAGATCCGAGAAGAGCAACATAACCCACAGGCCGCTCGGAGTCACCTAGTGCAG	3720 fluorescence intensity (a.u.)
TAAAACAAGTCATAATAAAATAAATAGTAATTAAAATTCTCGGAGTCACCTAGTGCAG	29200 fluorescence intensity (a.u.)
GCGGCGTGGCGGTTTCCGGGCCAACGGCTGACATGTCGGCCGGAGTCACCTAGTGCAG	4930 fluorescence intensity (a.u.)
TGATGCCGCTGACGCCTGCTTTGTCAAGGACTCAAGGTCACGGAGTCACCTAGTGCAG	4020 fluorescence intensity (a.u.)
GAGGCAAAACTACTTATTCCATGACAACATCTTGGGCCATCGGAGTCACCTAGTGCAG	4200 fluorescence intensity (a.u.)
TCAACCGGATCAAGTAGGATATCCTTGTGAGTTGGCATCCCGGAGTCACCTAGTGCAG	3700 fluorescence intensity (a.u.)
ATGACTATAGATGGTACGTTGCTACATGCTACTACTTCTGCGGAGTCACCTAGTGCAG	36000 fluorescence intensity (a.u.)
GGACCCCACGCTGACTCAGCTGCCACGTTGGATGAAACCGCGGAGTCACCTAGTGCAG	21800 fluorescence intensity (a.u.)
GAACAGTGGTGGGCGCGGATGGCAGCACTGAGCGGCTCGGCGGAGTCACCTAGTGCAG	32000 fluorescence intensity (a.u.)
CCAACACGTGTCGTCTGTTGCCACGTTAACATCGCCGCAACGGAGTCACCTAGTGCAG	7330 fluorescence intensity (a.u.)
TAAAGTTTGATGAAATAGTCGCTCACGTGGCACGCGTGCACGGAGTCACCTAGTGCAG	9840 fluorescence intensity (a.u.)
TTGTCGCATCTGAACGTGTCGAGTCACACCTGTCTGTTAGCGGAGTCACCTAGTGCAG	8880 fluorescence intensity (a.u.)
CCTTCGCCGAGCTCCCTATATATCGCCGTCGTCTCGCACTCGGAGTCACCTAGTGCAG	22700 fluorescence intensity (a.u.)
TTCATAATTTGCTTCTTAGCATGACCAGTAATGCTGTAGACGGAGTCACCTAGTGCAG	3270 fluorescence intensity (a.u.)
ACGGCCTGTGACGGCAGCCTCCTCATCACGGCAAGTCGGCCGGAGTCACCTAGTGCAG	4530 fluorescence intensity (a.u.)
TATTTCAAATGTCAATAACAATAGCTGTGCGACACACGGTCGGAGTCACCTAGTGCAG	3450 fluorescence intensity (a.u.)
CTCAGTATTGGGTTGGGTGGTGGTGGCGGCGGTGGCAGTGCGGAGTCACCTAGTGCAG	5300 fluorescence intensity (a.u.)
GCAGGCAGCGAATGCCCCTCAGCACCCGTGCGCGATCCTGCGGAGTCACCTAGTGCAG	4000 fluorescence intensity (a.u.)
TGGTGGTGGTAGTGGTAGATCAAGAGCCAAGAAGTCCGGGCGGAGTCACCTAGTGCAG	3440 fluorescence intensity (a.u.)
AGAAGCCCTGTTTGCATTTTCCTACGTGGACGCCCTTGAGCGGAGTCACCTAGTGCAG	9510 fluorescence intensity (a.u.)
CGATCACTGATCACGACGATGACGACGAGACAAAGGGAAACGGAGTCACCTAGTGCAG	3830 fluorescence intensity (a.u.)
ATTGGCGCCGGCTGTGTACGACGCGTGGCCTCGACGTGGCCGGAGTCACCTAGTGCAG	6010 fluorescence intensity (a.u.)

Single entries from the list.
Under binding signal, TGATGCCGCTGACGCCTGCTTTGTCAAGGACTCAAGGTCACGGAGTCACCTAGTGCAG is entered as 4020 fluorescence intensity (a.u.)
Under binding signal, TCAACCGGATCAAGTAGGATATCCTTGTGAGTTGGCATCCCGGAGTCACCTAGTGCAG is entered as 3700 fluorescence intensity (a.u.)
Under binding signal, CTCAGTATTGGGTTGGGTGGTGGTGGCGGCGGTGGCAGTGCGGAGTCACCTAGTGCAG is entered as 5300 fluorescence intensity (a.u.)

Following part.

Sequence	binding signal
TAGTCCTTAATCATGACAACAGTGACATCACAAGCTAATACGGAGTCACCTAGTGCAG	3350 fluorescence intensity (a.u.)
ACCCAAAGCCACCCGCAACAACCGACGACGACGACGACCGCGGAGTCACCTAGTGCAG	24100 fluorescence intensity (a.u.)
ATTAACAATTCAATGGTTCTTGATGTGTTCTACTTAACCTCGGAGTCACCTAGTGCAG	3260 fluorescence intensity (a.u.)
GCGCGACCACGGCGTCGAGCCGACGCCGGACATCCTCGCCCGGAGTCACCTAGTGCAG	3220 fluorescence intensity (a.u.)
GCCGCCTCACGACGCGAGCGCGCCACATGGACATCCACCACGGAGTCACCTAGTGCAG	3810 fluorescence intensity (a.u.)
AATGTACATGTGGTACTGACCCGTGCGCACCGCCTCCCATCGGAGTCACCTAGTGCAG	3520 fluorescence intensity (a.u.)
ACCTAGGCACGCAGACGCAGAGAAGAAACGTCCATTCCTGCGGAGTCACCTAGTGCAG	3420 fluorescence intensity (a.u.)
GCCCTTGATTTCTGACTAGATTTGTGTTATTCTACTTACACGGAGTCACCTAGTGCAG	5060 fluorescence intensity (a.u.)
AGCTTCCTCCTCCTTCCCTCCACGCGGACATGGTATAGCCCGGAGTCACCTAGTGCAG	3510 fluorescence intensity (a.u.)
TTACCCGAGAGACGCCACCTCACCGCACCCCGTCTCACAGCGGAGTCACCTAGTGCAG	4810 fluorescence intensity (a.u.)
AAGATTGTGGATGCGCAGAAGCCCGGGTTCGGGCGCAAGTCGGAGTCACCTAGTGCAG	19700 fluorescence intensity (a.u.)
TGAGGGTCCTGAACGAGACGAGCGCCGTCTGGACGTGGCACGGAGTCACCTAGTGCAG	3310 fluorescence intensity (a.u.)
GTGCGTTGTGTGGTTGGTTGGTCAGTGTCTGGGTGGTCACCGGAGTCACCTAGTGCAG	26000 fluorescence intensity (a.u.)
CCCATTGTACGTACGGTGGACTCCCTGCGCGCGGTTTCTCCGGAGTCACCTAGTGCAG	3210 fluorescence intensity (a.u.)
GTACTGTAGCACATATGACTAATCATGGATTAATTAGTCTCGGAGTCACCTAGTGCAG	3190 fluorescence intensity (a.u.)
AAGGGATTAATATGTCATGATGATGTTCAATTAAAGAAGTCGGAGTCACCTAGTGCAG	5510 fluorescence intensity (a.u.)
TTTATCCTCCGCTGTCACCGTGTCACCGCCAGTCCGCCAGCGGAGTCACCTAGTGCAG	7280 fluorescence intensity (a.u.)
TGCCAGCCGACGGATGGACTCAGTGATGGCGTCACAGGCGCGGAGTCACCTAGTGCAG	5380 fluorescence intensity (a.u.)
GATGGAGGTGGAGGAGATGGGGTTCCACATTTACAGTCACCGGAGTCACCTAGTGCAG	3220 fluorescence intensity (a.u.)
GCGCGCCACATCGTCCGCCACGCCGACGGTCAGCCTCCACCGGAGTCACCTAGTGCAG	8360 fluorescence intensity (a.u.)
GTGTAACATCGATTACCCGTTCTCTCCTTTGCGGGATTTGCGGAGTCACCTAGTGCAG	3290 fluorescence intensity (a.u.)
CATTTATATGTACCATGGATTGCATTGGTGCCAAGTATGTCGGAGTCACCTAGTGCAG	3550 fluorescence intensity (a.u.)
CATAATATAGTATGCAACCACTGTCTGCCAACTACATGGCCGGAGTCACCTAGTGCAG	3250 fluorescence intensity (a.u.)
GTCCCTTCCCAACAAACAAACCCGCCACCACACGGCGCCCCGGAGTCACCTAGTGCAG	3390 fluorescence intensity (a.u.)
GCTGATTTCTGTAATTTCTTACGTGGGTCCAACAGGTGATCGGAGTCACCTAGTGCAG	3670 fluorescence intensity (a.u.)
ACATAACACTATAGCTTAAAAGATATCATCATATCTAAGCCGGAGTCACCTAGTGCAG	3600 fluorescence intensity (a.u.)
CCCACTGACGGCTCGACCCCACGTTGCGTGGGTCCCACGCCGGAGTCACCTAGTGCAG	4910 fluorescence intensity (a.u.)
